Experimental data: PubChem BioAssay AID504786 (Drosophila RNAi Screening Center, 2011)

Assay: 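Positive regulators of HIF-driven reporter output in Drosophila cells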 (primary screen)
Cells: Drosophila S2 cells with a stable HIF luciferase reporter
Knock-down reagent: long dsRNA against Drosophila genes, about 0.2 µg dsRNA per well of a 384-well plate
Timing: three days of knock-down, then 20 h of DFO before reading
Challenge: desferrioxamine (DFO) at 100 µM, an iron chelator that mimics hypoxia, for 20 h
Detection: 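Firefly luciferase driven by the mouse ldh-a hypoxia-response element, measured after 20 h of 100 µM DFO; z-scores per plate, higher means more signal lost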
Reading the numbers: z-score: higher = stronger loss of HIF reporter signal
The deposit covers about 21,000 reagents; below is an unselected part of those with a known target gene and a result. 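Primary screen; positive scores mean lost reporter signal, so the sign may be inverted from the usual convention.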 The numbers tell different reagents against one gene apart. Further read-outs or replicates are left out here. Reagent sequences are not shown.

z-score, replicate 1, by gene and reagent
Vps13 (Vacuolar protein sorting 13): #1 -0.1
CG2225: #1 -0.2; #2 -0.2
ppk13 (pickpocket 13): #1 -0.3
CG11600: #1 -0.3
RecQ4 (RecQ4 helicase): #1 0.2
CG6978: #1 -0.3
ND-B16.6 (NADH dehydrogenase (ubiquinone) B16.6 subunit): #1 -0.2
Cand1 (Cullin-associated and neddylation-dissociated 1): #1 -0.4
ND-49 (NADH dehydrogenase (ubiquinone) 49 kDa subunit): #1 -0.1
spag4 (sperm-associated antigen 4): #1 -0.2

4 of these entries in another layout.
| gene | reagent no. | z-score, replicate 1 |
| --- | --- | --- |
| ppk13 (pickpocket 13) | 1 | -0.3 |
| CG11600 | 1 | -0.3 |
| RecQ4 (RecQ4 helicase) | 1 | 0.2 |
| CG6978 | 1 | -0.3 |

More reagents:
z-score, replicate 1, by gene and reagent
CG42699: #1 -0.3; #2 -0.2
CG13613: #1 -0.4
Vha100-5 (Vacuolar H[+] ATPase 100kD subunit 5): #1 -0.2
CG43317: #1 -0.4
bbc (bb in a boxcar): #1 -0.3
CheB53a (Chemosensory protein B 53a): #1 -0.4
fd96Cb (forkhead domain 96Cb): #1 -0.1
CG5861: #1 -0.1
rpk (ripped pocket): #1 -0.2
pck (pickel): #1 -0.3
eIF2alpha (eukaryotic translation initiation factor 2 subunit alpha): #1 1.9
enc (encore): #1 -0.1
Cp7Fc (Chorion protein c at 7F): #1 -0.1
PH4alphaSG1 (prolyl-4-hydroxylase-alpha SG1): #1 -0.5
CG32026: #1 0
PpV (Protein phosphatase V): #1 0.1
Pdss2 (Decaprenyl diphosphate synthase subunit 2): #1 -0.3
CG14628: #1 -0.4
CG32772: #1 -0.4; #2 -0.3
ND-13B (NADH dehydrogenase (ubiquinone) 13 kDa B subunit): #1 0
Pgls (6-phosphogluconolactonase): #1 -0.2
